Data: paper doi:10.1101/772400
No constants are given. Whether binding was seen depends on the method and setting. For part of these data: Binding seen in cells or lysates may run through a third protein. Some binding calls cover weakened binding; strength is not graded here. For part of these data: Tags and fused reporters may be left off the sequences shown.

By UniProt entry, the sequences of proteins in these tests, tags left out.
UniProt Q9FGD1: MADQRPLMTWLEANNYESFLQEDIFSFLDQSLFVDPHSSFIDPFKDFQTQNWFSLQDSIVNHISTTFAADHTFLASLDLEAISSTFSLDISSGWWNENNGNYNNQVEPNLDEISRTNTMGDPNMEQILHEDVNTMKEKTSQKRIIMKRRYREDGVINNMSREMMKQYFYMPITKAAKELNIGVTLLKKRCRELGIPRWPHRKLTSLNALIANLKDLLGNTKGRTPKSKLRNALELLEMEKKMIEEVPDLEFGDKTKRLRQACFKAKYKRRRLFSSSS
UniProt Q9FY60: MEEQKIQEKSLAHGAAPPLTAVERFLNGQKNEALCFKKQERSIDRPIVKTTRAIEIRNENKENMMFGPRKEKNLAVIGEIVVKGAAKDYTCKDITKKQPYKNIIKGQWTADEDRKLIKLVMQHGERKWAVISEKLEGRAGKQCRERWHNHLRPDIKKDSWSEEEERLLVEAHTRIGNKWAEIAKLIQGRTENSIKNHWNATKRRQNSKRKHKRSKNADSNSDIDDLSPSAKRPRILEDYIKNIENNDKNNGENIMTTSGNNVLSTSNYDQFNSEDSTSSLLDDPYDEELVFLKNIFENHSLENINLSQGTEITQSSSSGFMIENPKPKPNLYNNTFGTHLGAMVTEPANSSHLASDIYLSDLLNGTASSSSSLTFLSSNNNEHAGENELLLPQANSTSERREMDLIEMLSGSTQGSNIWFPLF
UniProt Q9M9U9: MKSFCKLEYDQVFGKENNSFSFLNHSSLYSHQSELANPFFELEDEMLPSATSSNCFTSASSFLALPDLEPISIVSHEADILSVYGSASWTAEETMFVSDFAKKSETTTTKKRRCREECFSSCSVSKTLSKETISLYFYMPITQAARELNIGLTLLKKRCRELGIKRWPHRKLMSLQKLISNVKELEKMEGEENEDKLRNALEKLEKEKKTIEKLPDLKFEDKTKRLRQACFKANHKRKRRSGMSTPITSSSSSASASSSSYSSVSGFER
UniProt Q9CA66: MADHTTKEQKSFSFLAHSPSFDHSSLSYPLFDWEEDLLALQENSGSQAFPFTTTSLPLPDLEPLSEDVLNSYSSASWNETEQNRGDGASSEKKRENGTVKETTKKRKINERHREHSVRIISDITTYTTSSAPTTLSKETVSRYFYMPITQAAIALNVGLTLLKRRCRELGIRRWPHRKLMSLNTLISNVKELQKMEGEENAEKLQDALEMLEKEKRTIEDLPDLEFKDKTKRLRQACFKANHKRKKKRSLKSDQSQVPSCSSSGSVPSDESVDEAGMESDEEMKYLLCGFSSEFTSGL
UniProt Q9FIM4: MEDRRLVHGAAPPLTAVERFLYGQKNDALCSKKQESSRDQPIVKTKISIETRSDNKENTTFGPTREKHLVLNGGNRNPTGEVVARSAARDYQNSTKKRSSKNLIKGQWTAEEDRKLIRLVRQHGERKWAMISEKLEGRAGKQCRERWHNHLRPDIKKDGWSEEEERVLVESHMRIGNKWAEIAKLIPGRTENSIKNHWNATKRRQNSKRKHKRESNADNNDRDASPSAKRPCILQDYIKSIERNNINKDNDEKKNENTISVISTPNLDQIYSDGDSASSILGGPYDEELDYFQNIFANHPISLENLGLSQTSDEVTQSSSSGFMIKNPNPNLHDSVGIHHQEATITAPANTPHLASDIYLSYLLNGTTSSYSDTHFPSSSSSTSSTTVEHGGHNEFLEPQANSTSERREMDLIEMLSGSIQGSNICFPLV
UniProt O22467: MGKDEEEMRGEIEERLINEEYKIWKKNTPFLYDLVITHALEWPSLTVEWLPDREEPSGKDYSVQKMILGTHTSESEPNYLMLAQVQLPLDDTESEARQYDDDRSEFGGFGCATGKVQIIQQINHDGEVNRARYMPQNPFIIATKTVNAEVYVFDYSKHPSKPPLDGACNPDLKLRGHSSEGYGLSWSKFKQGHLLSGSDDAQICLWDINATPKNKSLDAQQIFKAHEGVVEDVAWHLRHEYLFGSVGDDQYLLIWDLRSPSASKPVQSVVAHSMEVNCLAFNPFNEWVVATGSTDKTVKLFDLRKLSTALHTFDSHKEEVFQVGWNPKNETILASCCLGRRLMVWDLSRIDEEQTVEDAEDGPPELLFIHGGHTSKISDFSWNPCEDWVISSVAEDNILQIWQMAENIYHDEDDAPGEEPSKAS

target: T1, C-Ven-RBR (RETINOBLASTOMA RELATED fused to C-Venus for BiFC) (Arabidopsis (accession Col-0)) (UniProt Q9LKZ3); assay: split reporter
T1 sequence: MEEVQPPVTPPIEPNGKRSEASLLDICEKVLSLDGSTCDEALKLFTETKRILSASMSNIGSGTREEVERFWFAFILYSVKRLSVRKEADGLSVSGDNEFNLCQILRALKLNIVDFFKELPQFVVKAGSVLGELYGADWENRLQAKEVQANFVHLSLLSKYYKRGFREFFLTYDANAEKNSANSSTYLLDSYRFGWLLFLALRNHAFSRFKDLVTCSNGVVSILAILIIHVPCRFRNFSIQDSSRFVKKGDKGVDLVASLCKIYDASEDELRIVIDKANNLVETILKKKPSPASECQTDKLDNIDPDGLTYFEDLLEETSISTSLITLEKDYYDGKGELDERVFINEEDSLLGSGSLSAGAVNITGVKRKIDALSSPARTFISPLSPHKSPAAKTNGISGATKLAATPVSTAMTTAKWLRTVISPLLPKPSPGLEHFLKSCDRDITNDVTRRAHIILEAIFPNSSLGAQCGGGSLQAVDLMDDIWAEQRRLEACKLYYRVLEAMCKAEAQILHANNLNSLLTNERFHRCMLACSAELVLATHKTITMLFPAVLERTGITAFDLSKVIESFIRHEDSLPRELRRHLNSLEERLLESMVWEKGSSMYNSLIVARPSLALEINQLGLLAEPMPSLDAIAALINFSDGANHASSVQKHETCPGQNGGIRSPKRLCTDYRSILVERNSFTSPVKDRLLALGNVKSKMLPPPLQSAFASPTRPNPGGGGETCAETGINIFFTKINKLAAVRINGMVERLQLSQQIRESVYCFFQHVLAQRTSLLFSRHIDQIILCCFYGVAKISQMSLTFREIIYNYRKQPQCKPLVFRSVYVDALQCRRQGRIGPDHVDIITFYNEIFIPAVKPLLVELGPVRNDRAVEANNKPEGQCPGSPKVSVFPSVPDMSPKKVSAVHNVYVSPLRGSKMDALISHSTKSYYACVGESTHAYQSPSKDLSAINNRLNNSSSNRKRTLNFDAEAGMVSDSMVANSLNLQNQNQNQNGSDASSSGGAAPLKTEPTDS

Substance | binding
N-Ven-RKD3 (BiFC fusion) (from UniProt Q9FGD1 1-277) | binds
N-Ven-MYB64 (BiFC fusion) (from UniProt Q9FY60 1-423) | binds
N-Ven-RKD1 (BiFC fusion) (from UniProt Q9M9U9 1-269) | binds
N-Ven-RKD2 (BiFC fusion) (from UniProt Q9CA66 1-298) | binds
N-Ven-MYB119 (BiFC fusion) (from UniProt Q9FIM4 1-430) | binds weakly

target: T2, RETINOBLASTOMA RELATED (RBR), LexA two-hybrid bait (Arabidopsis (accession Col-0)) (UniProt Q9LKZ3); assay: two-hybrid
T2 sequence: T1 sequence

binding | Substance
binds | RKD3 (RWP-RK domain-containing 3), two-hybrid prey (from UniProt Q9FGD1 1-277)
binds | MYB119, two-hybrid prey (from UniProt Q9FIM4 1-430)
binds | MULTI-SUPRESSOR-OF-IRA 1 (MSI1), two-hybrid prey (from UniProt O22467 1-424)
binds | MYB64, two-hybrid prey (from UniProt Q9FY60 1-423)
